Data as given in PubChem BioAssay AID1259308 (NCATS, 2017).

Aim: 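Candidate targets for better recombinant protein yield in mammalian cells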 (primary screen)
Cell system: human HEK293 embryonic kidney cells stably expressing firefly luciferase (HEK-CMV-Luc2-Hygro)
Knock-down reagent: single siRNA against human genes, 0.8 pmol siRNA per well
Duration: 72 h
Detection: 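Reporter luminescence and viable-cell signal on separate replicate plates, given as percent of non-targeting control and median/MAD z-scores, plus per-cell luciferase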
Direction: total luciferase, z-score: higher = more reporter protein produced
Active means: 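An siRNA counts as active if its total luciferase robust z-score exceeds 3; genes with two or more such siRNAs out of three were retested with fresh siRNAs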
Calls: active = raised luciferase; inactive = no rise
Here is one part, drawn at random, of about 59,000 reagents tested. Over the whole deposit, about 1,510 (2.6%) are marked active. 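Calls use total luciferase alone and ignore viability, so some active siRNAs may act by altering cell number.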 Unmarked entries are inactive. Reagents against one gene are numbered here. Further read-outs or replicates are left out here. No sequences are given here.

LINC00326 (long independently transcribed non-coding RNA 326) #1 | total luciferase, z-score = 0.405
LINC00326 (long independently transcribed non-coding RNA 326) #2 | total luciferase, z-score = -0.115
LINC00326 (long independently transcribed non-coding RNA 326) #3 | total luciferase, z-score = -0.163
NUP43 (nucleoporin 43) #1 | total luciferase, z-score = 0.581
NUP43 (nucleoporin 43) #2 | total luciferase, z-score = -0.0632
NUP43 (nucleoporin 43) #3 | total luciferase, z-score = -1.15
DRGX (dorsal root ganglia homeobox) #1 | total luciferase, z-score = -1.14
DRGX (dorsal root ganglia homeobox) #2 | total luciferase, z-score = -0.168
DRGX (dorsal root ganglia homeobox) #3 | total luciferase, z-score = -0.585
COL9A2 (collagen type IX alpha 2 chain) #1 | total luciferase, z-score = 3.26 (active)
COL9A2 (collagen type IX alpha 2 chain) #2 | total luciferase, z-score = 0.872
COL9A2 (collagen type IX alpha 2 chain) #3 | total luciferase, z-score = 0.777
MYL10 (myosin light chain 10) #1 | total luciferase, z-score = -0.555
MYL10 (myosin light chain 10) #2 | total luciferase, z-score = -0.191
MYL10 (myosin light chain 10) #3 | total luciferase, z-score = 1.99
SRP19 (signal recognition particle 19) #1 | total luciferase, z-score = -0.492
SRP19 (signal recognition particle 19) #2 | total luciferase, z-score = 1.16
SRP19 (signal recognition particle 19) #3 | total luciferase, z-score = 0.104
CHRM5 (cholinergic receptor muscarinic 5) #1 | total luciferase, z-score = -0.652
CHRM5 (cholinergic receptor muscarinic 5) #2 | total luciferase, z-score = -0.876
CHRM5 (cholinergic receptor muscarinic 5) #3 | total luciferase, z-score = -0.511
RPS17P10 (ribosomal protein S17 pseudogene 10) #1 | total luciferase, z-score = -0.592
RPS17P10 (ribosomal protein S17 pseudogene 10) #2 | total luciferase, z-score = 3.19 (active)
RPS17P10 (ribosomal protein S17 pseudogene 10) #3 | total luciferase, z-score = -0.842
TFPT (TCF3 fusion partner) #1 | total luciferase, z-score = 0.682
TFPT (TCF3 fusion partner) #2 | total luciferase, z-score = 2.23
TFPT (TCF3 fusion partner) #3 | total luciferase, z-score = -0.575
OR51B2 (olfactory receptor family 51 subfamily B member 2) #1 | total luciferase, z-score = -0.576
OR51B2 (olfactory receptor family 51 subfamily B member 2) #2 | total luciferase, z-score = -1.21
OR51B2 (olfactory receptor family 51 subfamily B member 2) #3 | total luciferase, z-score = 0.206
ZNF248 (zinc finger protein 248) #1 | total luciferase, z-score = -0.526
ZNF248 (zinc finger protein 248) #2 | total luciferase, z-score = 0.754
ZNF248 (zinc finger protein 248) #3 | total luciferase, z-score = 0.0819
